No constants are given. Whether binding was seen depends on the method and setting. In cells and extracts the contact can be indirect. Some entries that bind do so weakly or less than the wild type.
Key:
[1] = biological target: Cdk5 activator subunit p35/p25 (rat) (UniProt P61810); assay: co-immunoprecipitation from neuron lysates with anti-p35/25 antibody, Western blot for Cdk5
[2] = biological target: Cdk5 activator subunit p35/p25 (rat) (UniProt P61810); assay: co-immunoprecipitation from neuron lysates, Western blot (FIG. 7)
[3] = biological target: Cdk5 activator subunit p35/p25 (rat) (UniProt P61810); assay: co-immunoprecipitation from primary cortical neuron lysates with anti-p35/p25 antibody, Western blot for Cdk5

Amino acid sequences for entries named in this document (tags omitted). Residues count along the entry.
UniProt P61810, residues 2-307: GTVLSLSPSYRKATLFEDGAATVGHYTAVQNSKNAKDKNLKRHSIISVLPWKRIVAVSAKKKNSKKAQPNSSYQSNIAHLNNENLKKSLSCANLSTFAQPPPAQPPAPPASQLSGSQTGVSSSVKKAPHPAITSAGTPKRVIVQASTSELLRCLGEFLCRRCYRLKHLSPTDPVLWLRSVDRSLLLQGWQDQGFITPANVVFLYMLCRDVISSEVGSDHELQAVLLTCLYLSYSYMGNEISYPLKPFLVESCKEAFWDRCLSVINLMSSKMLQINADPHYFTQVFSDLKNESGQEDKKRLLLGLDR

Measured: binding

cyclin dependent kinase 5 (Cdk5) (from UniProt Q03114 1-292) (enzyme)
binds: all assays above
